Taken from: PubChem BioAssay AID720505 (Drosophila RNAi Screening Center, 2013)
Test: 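Knock-downs that reduce calcium influx once internal stores are emptied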 (primary screen). Cell system: Drosophila S2R+ cells. Knock-down reagent: long dsRNA against Drosophila genes. Conditions: thapsigargin (2 µM) in calcium-free buffer to empty internal stores, then 2 mM calcium added back. Measured: 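Stores emptied by 2 µM thapsigargin without calcium, then 2 mM calcium re-added; fluo-4 fluorescence followed by FLIPR in 384-well plates, per-well averaged endpoint, raw; two screen passes, some wells retested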. Reading the numbers: calcium signal: higher = more calcium entry after store depletion. Call rule: 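About 1500 genes called as lowering calcium entry, by varying amounts, judged against per-plate control wells with STIM1 as positive and Rho1 as negative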. Calls: active = called as lowering calcium entry; inactive = not called.
The deposit covers about 20,000 reagents; this is an unselected part of those that have a named target and a result. Over the whole deposit, about 2,100 (10%) were called active. 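Raw plate signals without normalisation; calls rest on control-based scores that were not deposited; replicate 2 separates called from uncalled poorly.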 Not stated in the record: the amount of reagent, the time to read-out.

Silencing of CG5946 came out at: calcium signal, replicate 1 = 60.1; calcium signal, replicate 2 = 84.5; active.
CG2021 gave calcium signal, replicate 1 = 89.3; calcium signal, replicate 2 = 61.3; inactive.
With knock-down of CG1698, the screen gave calcium signal, replicate 1 = 158; calcium signal, replicate 2 = 183; inactive.
Against Sema2a (Semaphorin 2a), the values are calcium signal, replicate 1 = 171; calcium signal, replicate 2 = 93.1; inactive.
Against fiz (fezzik), the values are calcium signal, replicate 1 = 110; calcium signal, replicate 2 = 112; inactive.
Against imd (immune deficiency) the deposit lists calcium signal, replicate 1 = 128; calcium signal, replicate 2 = 117; inactive.
Against Lime (Linking immunity and metabolism), the entry reads calcium signal, replicate 1 = 80; calcium signal, replicate 2 = 194; inactive.
Knock-down of CG42361 came out at: calcium signal, replicate 1 = 130; calcium signal, replicate 2 = 210; inactive.
Silencing of snsl (snustorr snarlik) came out at: calcium signal, replicate 1 = 189; calcium signal, replicate 2 = 113; inactive.
Against Fmo-1 (Flavin-containing monooxygenase 1), the entry reads calcium signal, replicate 1 = 144; calcium signal, replicate 2 = 128; inactive.
GlcT (Glucosylceramide synthase) showed calcium signal, replicate 1 = 86; calcium signal, replicate 2 = 84.7; inactive.
Depletion of C901 gave: calcium signal, replicate 1 = 148; calcium signal, replicate 2 = 114; inactive.
Etl1 scored calcium signal, replicate 1 = 105; calcium signal, replicate 2 = 95.1; inactive.
CG13040 gave calcium signal, replicate 1 = 74.6; calcium signal, replicate 2 = 83.3; active.
Depletion of Rop (Ras opposite) resulted in: calcium signal, replicate 1 = 112; calcium signal, replicate 2 = 80.8; inactive.
After knock-down of Tsp26A (Tetraspanin 26A), the record shows calcium signal, replicate 1 = 188; calcium signal, replicate 2 = 116; inactive.
Silencing of mRpS23 (mitochondrial ribosomal protein S23) gave: calcium signal, replicate 1 = 214; calcium signal, replicate 2 = 107; inactive.
Ndc1 (Nuclear division cycle 1) showed calcium signal, replicate 1 = 232; calcium signal, replicate 2 = 347; inactive.
For CG8788, the values are calcium signal, replicate 1 = 137; calcium signal, replicate 2 = 155; inactive.

Already shown: entries from further up.
CG2021: calcium signal, replicate 1 = 89.3; calcium signal, replicate 2 = 61.3; Call = inactive
CG1698: calcium signal, replicate 1 = 158; calcium signal, replicate 2 = 183; Call = inactive
Sema2a (Semaphorin 2a): calcium signal, replicate 1 = 171; calcium signal, replicate 2 = 93.1; Call = inactive
